{"source": "paper PMC9600550", "about": "“The pH Robustness of Bacterial Sensing” (mBio, 2022)", "test_system": "E6B08_RS28125", "assay": "ITC titration of E6B08_RS28125 with L-ornithine at different pH", "type": "binding, P. putida 1290"}
{"smiles": "NCCC[C@H](N)C(=O)O", "note": "[L-ornithine]", "values": [{"measurement": "width of pH range of ligand recognition", "value": 8.0, "unit": "pH units"}, {"measurement": "pH optimum", "setting": "25°C", "value": 9.0}, {"measurement": "pH range of binding", "setting": "25°C, defined as binding with a KD below 1 mM", "value": "3.0-11.0"}]}
